In the supplement of paper PMC8728848:
The other results are listed elsewhere or left out.

Key:
Assay in all cases: glycan array binding signal (z-score within array); higher = stronger binding
Details in all cases: glycan notation: IUPAC condensed, linker removed
[1] = biological target: GlcNAc(b1-3)Gal(b1-4)GlcNAc(b1-2)[GlcNAc(b1-3)Gal(b1-4)GlcNAc(b1-6)]Man(a1-6)[GlcNAc(b1-3)Gal(b1-4)GlcNAc(b1-2)Man(a1-3)]Man(b1-4)GlcNAc(b1-4)GlcNAc
Outline: (§1)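 The binding signal is a Z-score computed within each array and averaged over linkers. Arrays of the same protein sequence at different concentrations or buffers were also averaged together. Data originate from 3228 arrays in the Consortium for Functional Glycomics database, kept only where the protein sequence was available.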

[2] = biological target: GlcNAc(b1-3)Gal(b1-4)GlcNAc(b1-3)Gal(b1-4)GlcNAc
Outline: as §1

[3] = biological target: GlcNAc(b1-3)Gal(b1-4)GlcNAc(b1-3)Gal(b1-4)GlcNAc(b1-2)Man(a1-3)[GlcNAc(b1-3)Gal(b1-4)GlcNAc(b1-3)Gal(b1-4)GlcNAc(b1-2)Man(a1-6)]Man(b1-4)GlcNAc(b1-4)GlcNAc
Outline: as §1

[4] = biological target: GlcNAc(b1-3)Gal(b1-4)GlcNAc(b1-3)Gal(b1-4)GlcNAc(b1-2)Man(a1-3)[GlcNAc(b1-3)Gal(b1-4)GlcNAc(b1-3)Gal(b1-4)GlcNAc(b1-2)Man(a1-6)]Man(b1-4)GlcNAc(b1-4)[Fuc(a1-6)]GlcNAc
Outline: as §1

[5] = biological target: GlcNAc(b1-3)Gal(b1-4)GlcNAc(b1-3)Gal(b1-4)GlcNAc(b1-2)[GlcNAc(b1-3)Gal(b1-4)GlcNAc(b1-3)Gal(b1-4)GlcNAc(b1-6)]Man(a1-6)[GlcNAc(b1-3)Gal(b1-4)GlcNAc(b1-3)Gal(b1-4)GlcNAc(b1-2)Man(a1-3)]Man(b1-4)GlcNAc(b1-4)[Fuc(a1-6)]GlcNAc
Outline: as §1

[6] = biological target: GlcNAc(b1-3)Gal(b1-4)GlcNAc(b1-3)Gal(b1-4)GlcNAc(b1-3)Gal(b1-4)GlcNAc(b1-2)Man(a1-3)[GlcNAc(b1-3)Gal(b1-4)GlcNAc(b1-3)Gal(b1-4)GlcNAc(b1-3)Gal(b1-4)GlcNAc(b1-2)Man(a1-6)]Man(b1-4)GlcNAc(b1-4)GlcNAc
Outline: as §1

[7] = biological target: GlcNAc(b1-3)Gal(b1-4)GlcNAc(b1-3)Gal(b1-4)GlcNAc(b1-3)Gal(b1-4)GlcNAc(b1-2)Man(a1-3)[GlcNAc(b1-3)Gal(b1-4)GlcNAc(b1-3)Gal(b1-4)GlcNAc(b1-3)Gal(b1-4)GlcNAc(b1-2)Man(a1-6)]Man(b1-4)GlcNAc(b1-4)[Fuc(a1-6)]GlcNAc
Outline: as §1

[8] = biological target: GlcNAc(b1-3)Gal(b1-4)GlcNAc(b1-3)Gal(b1-4)GlcNAc(b1-3)Gal(b1-4)GlcNAc(b1-2)[GlcNAc(b1-3)Gal(b1-4)GlcNAc(b1-3)Gal(b1-4)GlcNAc(b1-3)Gal(b1-4)GlcNAc(b1-6)]Man(a1-6)[GlcNAc(b1-3)Gal(b1-4)GlcNAc(b1-3)Gal(b1-4)GlcNAc(b1-3)Gal(b1-4)GlcNAc(b1-2)Man(a1-3)]Man(b1-4)GlcNAc(b1-4)[Fuc(a1-6)]GlcNAc
Outline: as §1

[9] = biological target: GlcNAc(b1-3)Gal(b1-4)GlcNAc(b1-3)Gal(b1-4)GlcNAc(b1-3)Gal(b1-4)GlcNAc(b1-3)Gal(b1-4)GlcNAc(b1-2)Man(a1-3)[GlcNAc(b1-3)Gal(b1-4)GlcNAc(b1-3)Gal(b1-4)GlcNAc(b1-3)Gal(b1-4)GlcNAc(b1-3)Gal(b1-4)GlcNAc(b1-2)Man(a1-6)]Man(b1-4)GlcNAc(b1-4)GlcNAc
Outline: as §1

[10] = biological target: GlcNAc(b1-3)Gal(b1-4)GlcNAc(b1-3)Gal(b1-4)GlcNAc(b1-3)Gal(b1-4)GlcNAc(b1-3)Gal(b1-4)GlcNAc(b1-2)Man(a1-3)[GlcNAc(b1-3)Gal(b1-4)GlcNAc(b1-3)Gal(b1-4)GlcNAc(b1-3)Gal(b1-4)GlcNAc(b1-3)Gal(b1-4)GlcNAc(b1-2)Man(a1-6)]Man(b1-4)GlcNAc(b1-4)[Fuc(a1-6)]GlcNAc
Outline: as §1

[11] = biological target: GlcNAc(b1-3)Gal(b1-4)GlcNAc(b1-3)Gal(b1-4)GlcNAc(b1-3)Gal(b1-4)GlcNAc(b1-3)Gal(b1-4)GlcNAc(b1-2)[GlcNAc(b1-3)Gal(b1-4)GlcNAc(b1-3)Gal(b1-4)GlcNAc(b1-3)Gal(b1-4)GlcNAc(b1-3)Gal(b1-4)GlcNAc(b1-6)]Man(a1-6)[GlcNAc(b1-3)Gal(b1-4)GlcNAc(b1-3)Gal(b1-4)GlcNAc(b1-3)Gal(b1-4)GlcNAc(b1-3)Gal(b1-4)GlcNAc(b1-2)Man(a1-3)]Man(b1-4)GlcNAc(b1-4)[Fuc(a1-6)]GlcNAc
Outline: as §1

[12] = biological target: GlcNAc(b1-3)Gal(b1-4)GlcNAc(b1-3)Gal(b1-4)GlcNAc(b1-3)GalNAc
Outline: as §1

[13] = biological target: GlcNAc(b1-3)Gal(b1-4)GlcNAc(b1-3)GalNAc
Outline: as §1

[14] = biological target: GlcNAc(b1-3)Gal(b1-4)GlcNAc(b1-3)[GlcNAc(b1-3)Gal(b1-4)GlcNAc(b1-3)]GalNAc
Outline: as §1

[15] = biological target: GlcNAc(b1-3)Gal(b1-4)GlcNAc(b1-6)[Gal(b1-3)]GalNAc
Outline: as §1

[16] = biological target: GlcNAc(b1-3)Gal(b1-4)GlcNAc(b1-6)[GlcNAc(b1-3)Gal(b1-3)]GalNAc
Outline: as §1

[17] = biological target: GlcNAc(b1-3)Gal(b1-4)GlcNAc(b1-6)[GlcNAc(b1-3)]Gal(b1-4)GlcNAc
Outline: as §1

GlcNAc(b1-3)GalNAc = biological target: GlcNAc(b1-3)GalNAc
Outline: as §1

GlcNAc(b1-3)Man = biological target: GlcNAc(b1-3)Man
Outline: as §1

[18] = biological target: GlcNAc(b1-3)[GlcNAc(b1-4)][GlcNAc(b1-6)]GlcNAc
Outline: as §1

[19] = biological target: GlcNAc(b1-3)[GlcNAc(b1-6)]Gal(b1-4)GlcNAc
Outline: as §1

[20] = biological target: GlcNAc(b1-3)[GlcNAc(b1-6)]GalNAc
Outline: as §1

[21] = biological target: GlcNAc(b1-4)Gal(b1-4)GlcNAc
Outline: as §1

GlcNAc(b1-4)GlcNAc = biological target: GlcNAc(b1-4)GlcNAc
Outline: as §1

[22] = biological target: GlcNAc(b1-4)GlcNAc(b1-4)GlcNAc
Outline: as §1

[23] = biological target: GlcNAc(b1-4)GlcNAc(b1-4)GlcNAc(b1-4)GlcNAc(b1-4)GlcNAc
Outline: as §1

[24] = biological target: GlcNAc(b1-4)GlcNAc(b1-4)GlcNAc(b1-4)GlcNAc(b1-4)GlcNAc(b1-4)GlcNAc
Outline: as §1

[25] = biological target: GlcNAc(b1-4)[GlcNAc(b1-6)]GalNAc
Outline: as §1

[26] = biological target: GlcNAc(b1-6)Gal(b1-4)GlcNAc
Outline: as §1

GlcNAc(b1-6)GalNAc = biological target: GlcNAc(b1-6)GalNAc
Outline: as §1

GlcNAc3Prop(b1-4)GlcNAc = biological target: GlcNAc3Prop(b1-4)GlcNAc
Outline: as §1

[27] = biological target: GlcNAc6S(b1-3)Gal(b1-4)GlcNAc
Outline: as §1

Kdn(a2-3)Gal(b1-3)GalNAc = biological target: Kdn(a2-3)Gal(b1-3)GalNAc
Outline: as §1

Kdn(a2-3)Gal(b1-3)GlcNAc = biological target: Kdn(a2-3)Gal(b1-3)GlcNAc
Outline: as §1

Kdn(a2-3)Gal(b1-4)Glc = biological target: Kdn(a2-3)Gal(b1-4)Glc
Outline: as §1

Kdn(a2-3)Gal(b1-4)GlcNAc = biological target: Kdn(a2-3)Gal(b1-4)GlcNAc
Outline: as §1

[28] = biological target: Kdn(a2-3)Gal(b1-4)[Fuc(a1-3)]GlcNAc
Outline: as §1

Kdn(a2-6)Gal(b1-4)GlcNAc = biological target: Kdn(a2-6)Gal(b1-4)GlcNAc
Outline: as §1

B1: MFG-E8 (Mus musculus), P21956 (protein)
chain: MQVSRVLAALCGMLLCASGLFAASGDFCDSSLCLNGGTCLTGQDNDIYCLCPEGFTGLVCNETERGPCSPNPCYNDAKCLVTLDTQRGDIFTEYICQCPVGYSGIHCETETNYYNLDGEYMFTTAVPNTAVPTPAPTPDLSNNLASRCSTQLGMEGGAIADSQISASSVYMGFMGLQRWGPELARLYRTGIVNAWTASNYDSKPWIQVNLLRKMRVSGVMTQGASRAGRAEYLKTFKVAYSLDGRKFEFIQDESGGDKEFLGNLDNNSLKVNMFNPTLEAQYIKLYPVSCHRGCTLRFELLGCELHGCSEPLGLKNNTIPDSQMSASSSYKTWNLRAFGWYPHLGRLDNQGKINAWTAQSNSAKEWLQVDLGTQRQVTGIITQGARDFGHIQYVASYKVAHSDDGVQWTVYEEQGSSKVFQGNLDNNSHKKNIFEKPFMARYVRVLPVSWHNRITLRLELLGC
[1]
  glycan array binding signal (z-score): -0.881
[2]
  glycan array binding signal (z-score): -0.128
[3]
  glycan array binding signal (z-score): 0.331
[4]
  glycan array binding signal (z-score): -0.299
[5]
  glycan array binding signal (z-score): -0.08
[6]
  glycan array binding signal (z-score): -0.513
[7]
  glycan array binding signal (z-score): 0.828
[8]
  glycan array binding signal (z-score): -0.431
[9]
  glycan array binding signal (z-score): 0.418
[10]
  glycan array binding signal (z-score): 0.534
[11]
  glycan array binding signal (z-score): 0.156
[12]
  glycan array binding signal (z-score): -0.017
[13]
  glycan array binding signal (z-score): 0.398
[14]
  glycan array binding signal (z-score): -0.154
[15]
  glycan array binding signal (z-score): -0.243
[16]
  glycan array binding signal (z-score): -0.461
[17]
  glycan array binding signal (z-score): -0.516
GlcNAc(b1-3)GalNAc
  glycan array binding signal (z-score): -0.377
GlcNAc(b1-3)Man
  glycan array binding signal (z-score): -0.523
[18]
  glycan array binding signal (z-score): 1.84
[19]
  glycan array binding signal (z-score): -0.032
[20]
  glycan array binding signal (z-score): -0.369
[21]
  glycan array binding signal (z-score): -0.063
GlcNAc(b1-4)GlcNAc
  glycan array binding signal (z-score): 0.017
[22]
  glycan array binding signal (z-score): -0.582
[23]
  glycan array binding signal (z-score): 0.23
[24]
  glycan array binding signal (z-score): -0.779
[25]
  glycan array binding signal (z-score): -0.764
[26]
  glycan array binding signal (z-score): -0.789
GlcNAc(b1-6)GalNAc
  glycan array binding signal (z-score): 0.316
GlcNAc3Prop(b1-4)GlcNAc
  glycan array binding signal (z-score): -0.899
[27]
  glycan array binding signal (z-score): -0.316
Kdn(a2-3)Gal(b1-3)GalNAc
  glycan array binding signal (z-score): -0.006
Kdn(a2-3)Gal(b1-3)GlcNAc
  glycan array binding signal (z-score): -0.083
Kdn(a2-3)Gal(b1-4)Glc
  glycan array binding signal (z-score): -0.226
Kdn(a2-3)Gal(b1-4)GlcNAc
  glycan array binding signal (z-score): 0.153
[28]
  glycan array binding signal (z-score): -0.674
Kdn(a2-6)Gal(b1-4)GlcNAc
  glycan array binding signal (z-score): -0.046
